Out of some 320,000 compounds screened, about 2,100 (0.66%) were called active. Inconclusive results, whose numbers are uncertain, are shown with a selection of clear calls. Calls come from the whole dose curve; as a rule, active = well fitted inhibition curve with a large enough effect in the signal ratio, with a control signal flat (not every such curve was filed as active); inconclusive = small, poorly fitted or top-dose-only effect, or effect the other way, or a change in a side signal; inactive = flat fitted curve, though single readings scatter; the % refers to the signal ratio. A potency beside an inconclusive call is a rough fit, not a confirmed value.
Test: qHTS Assay for Lipid Storage Modulators in Drosophila S3 Cells
Settings: BODIPY lipid droplet fluorescence, 18-24 h, cells fed with added oleic acid; lipid storage change, negative = inhibition: at 46.1 µM (top of the series) unless noted
Method in brief: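 Drosophila S3 cells loaded with oleic acid (400 uM, as added) and compounds at several concentrations; lipid droplets imaged by 488-nm laser-scanning cytometry, 500–530 nm intensity and object ratio to cell channel. Percent activity normalized to 20 uM Triacsin C.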
With `CCNc1ccc(C(=O)OCC(=O)NCc2ccccc2Cl)cc1[N+](=O)[O-]` the lipid storage change, negative = inhibition was inconclusive: -8.67%.
In the case of `Cc1ccc(NC(=O)CCC(=O)NNC(=O)COc2ccccc2)c(C)c1`, the Potency is reported as inconclusive: 18.4 µM [falling, single point].
With `Cc1nnsc1C(=O)Nc1ccccc1Cl` the lipid storage change, negative = inhibition was inconclusive: 0.71%.
In the case of `O=C(c1cc([N+](=O)[O-])ccc1N1CCOCC1)N1CCN(c2ccc([N+](=O)[O-])cc2)CC1`, the lipid storage change, negative = inhibition is reported as “inconclusive”.
With `O=c1[nH]c(N2CCN(c3ccccc3)CC2)nc2c1CCCC2` the lipid storage change, negative = inhibition was inconclusive: 3.44%.
In the case of `O=c1n(Cc2ccc(F)cc2)nc2n1-c1ccccc1SC2`, the lipid storage change, negative = inhibition is reported as inconclusive: 10.8%.
For `CCOc1ccc2[nH]c3c(NCCO)ncnc3c2c1`, the Potency was inconclusive: 0.164 µM [falling, full curve, poor fit].
In the case of `c1ccc(CCNCCCOc2cccc3ccccc23)cc1`, the lipid storage change, negative = inhibition is reported as inconclusive: 47.3%.
In the case of `Cc1cccc(NC(=O)c2c(C)cc(=O)oc2C)n1`, the Potency is reported as active: 8.2 µM.
For `CCOc1cc(C2C3=C(CCCC3=O)N(CCC(=O)O)C3=C2C(=O)CCC3)ccc1OS(=O)(=O)c1ccc(C)cc1`, the lipid storage change, negative = inhibition was inconclusive: 13.9%.
For `CCc1cc(-c2n[nH]c(=S)n2CC)cs1`, the Potency was inconclusive: 4.61 µM [activator, full curve].
In the case of `OC(CNCCc1ccc(Cl)cc1Cl)COc1ccccc1` (stereo not drawn), the lipid storage change, negative = inhibition is reported as inconclusive: -138%.
With `C=C(C)c1cccc(C(C)(C)NC(=O)N2CCN(CC(N)=O)CC2)c1` the lipid storage change, negative = inhibition was inconclusive: -10.9%.
For `COc1cccc(-c2ncc3ccccc3c2COC(=O)N(C)C)c1`, the lipid storage change, negative = inhibition was inconclusive: 3.61%.
With `CCOCC(=O)Nc1nnc(SCCOC)s1` the Potency was inconclusive: 1.16 µM [falling, full curve].
For `O=C(Nc1ccc(F)cc1F)N1CCCN(c2ccc(C(F)(F)F)cn2)CC1`, the lipid storage change, negative = inhibition was inconclusive: 12.3%.
In the case of `COC(=O)c1cc(=O)nc2sc(-c3ccccc3)nn12`, the lipid storage change, negative = inhibition is reported as inconclusive: 0.905%.
With `O=C(/C=C/c1ccccc1)NC(NC(=S)Nc1ccc(Cl)cc1Cl)C(Cl)(Cl)Cl` (stereo not drawn) the lipid storage change, negative = inhibition was inconclusive: -86%.
With `CC(=O)Nc1ccc(/C(C)=N/NC(=O)c2ccncc2)cc1` the lipid storage change, negative = inhibition was inconclusive: 18.4%.
In the case of `CC1CCCCC1NC(=O)CN1C(=O)NC(C)(c2cc(F)ccc2F)C1=O` (stereo not drawn), the lipid storage change, negative = inhibition is reported as inconclusive: -34.9%.
For `Cc1ccc(SC(C)C(=O)Nc2cccnc2)cc1` (stereo not drawn), the lipid storage change, negative = inhibition was inconclusive: -29.3%.
With `O=C(CNS(=O)(=O)c1ccccc1)OCC(=O)c1ccc([N+](=O)[O-])cc1` the Potency was inconclusive: 7.31 µM [falling, partial curve, poor fit].
For `CSc1ncccc1C(=O)NC1CCCCCCC1`, the Potency was inconclusive: 0.0052 µM [activator, full curve, poor fit].
% is set by controls: 0 for no effect and ±100 for the full control effect; potency is the fitted concentration of half-maximal effect.
